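Luminescent count of living SK-N-SH childhood neuroblastoma cells after two days of compound exposure, fitted across a dilution series. Compounds were run as dilution series, mostly topping out near 46 µM. The number is the fitted potency (AC50, nM) for loss of viability; a lower value means a more potent cytotoxic effect. Calls follow the full dose curve, with inconclusive meaning a weak, poorly fitted, partial or top-dose-only killing effect.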

Values are in nM. Every entry below has the call inconclusive. Only part of the assay is shown, chiefly results filed as inconclusive. A potency from a partial, single-point or poor curve is only a rough figure. Some entries filed as inconclusive have a full curve.

| # | structure | fitted potency (nM) | curve as filed |
|---|---|---|---|
| 1 | `O=c1[nH]c2ccccc2n1CCCN1CCC(n2c(=O)[nH]c3cc(Cl)ccc32)CC1` | 16626 | cytotoxic, partial curve |
| 2 | `Nc1nc(Cl)nc2c1ncn2[C@@H]1O[C@H](CO)[C@@H](O)[C@@H]1F` | 9350 | cytotoxic, partial curve |
| 3 | `C[C@@H]1O[C@@H](O[C@@H]2C=C3CC[C@@H]4[C@@H](CC[C@]5(C)[C@H](c6ccc(=O)oc6)CC[C@@]45O)[C@@]3(C)CC2)[C@H](O)[C@H](O)[C@H]1O` | 18.7 | cytotoxic, full curve, poor fit |
| 4 | `CN(C)CCCN1c2ccccc2Sc2ccc(C(F)(F)F)cc21` | 29565 | cytotoxic, single point |
| 5 | `COC(=O)C1C2CC3c4[nH]c5cc(OC)ccc5c4CCN3CC2CC(OC(=O)c2cc(OC)c(OC)c(OC)c2)C1OC` (configuration not stated) | 29565 | cytotoxic, single point |
| 6 | `Cc1c(Cn2c(C)nc3c(C(=O)O)cc(N4CCOCC4)cc32)cccc1C(F)(F)F` | 29565 | cytotoxic, partial curve, poor fit |
| 7 | `CC(=O)[C@H]1CC[C@H]2[C@@H]3CCC4=CC(=O)CC[C@]4(C)[C@H]3CC[C@]12C` | 11770 | cytotoxic, full curve |
| 8 | `CC(=O)[C@@]1(O)CC[C@H]2[C@@H]3C[C@H](C)C4=CC(=O)C=C[C@]4(C)[C@@]3(F)[C@@H](O)C[C@@]21C` | 26350 | cytotoxic, single point |
| 9 | `CN1C[C@H](C(=O)N[C@]2(C)O[C@@]3(O)[C@@H]4CCCN4C(=O)[C@H](Cc4ccccc4)N3C2=O)C[C@@H]2c3cccc4[nH]cc(c34)C[C@H]21` | 26350 | cytotoxic, single point |
| 10 | `O=C(Nc1ncc(-c2cc(C(F)F)nn2-c2c(Cl)cccc2Cl)s1)C1CC1` | 525.8 | cytotoxic, full curve |

2 of the entries, repeated:

* Cc1c(Cn2c(C)nc3c(C(=O)O)cc(N4CCOCC4)cc32)cccc1C(F)(F)F : fitted potency 29565 nM (cytotoxic, partial curve, poor fit)
* COC(=O)C1C2CC3c4[nH]c5cc(OC)ccc5c4CCN3CC2CC(OC(=O)c2cc(OC)c(OC)c(OC)c2)C1OC (configuration not stated) : fitted potency 29565 nM (cytotoxic, single point)

Source: PubChem BioAssay AID1347129 (NCATS, 2019).